From publication PMC6070540, “SUMO-mediated regulation of NLRP3 modulates inflammasome activity” (Nature Communications, 2018) come the findings set out here.

Amino acid sequences for entries named in this document (tags omitted).
UniProt Q969V5: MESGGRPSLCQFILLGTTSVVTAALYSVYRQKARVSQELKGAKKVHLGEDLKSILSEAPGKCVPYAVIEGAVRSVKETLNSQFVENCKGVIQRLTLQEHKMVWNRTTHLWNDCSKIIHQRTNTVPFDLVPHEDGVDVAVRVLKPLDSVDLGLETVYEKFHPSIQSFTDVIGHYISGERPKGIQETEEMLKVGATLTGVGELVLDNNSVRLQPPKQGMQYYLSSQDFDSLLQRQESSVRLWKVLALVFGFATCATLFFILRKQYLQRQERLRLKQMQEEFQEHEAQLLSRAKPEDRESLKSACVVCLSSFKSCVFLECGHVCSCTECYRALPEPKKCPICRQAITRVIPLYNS
UniProt Q96P20: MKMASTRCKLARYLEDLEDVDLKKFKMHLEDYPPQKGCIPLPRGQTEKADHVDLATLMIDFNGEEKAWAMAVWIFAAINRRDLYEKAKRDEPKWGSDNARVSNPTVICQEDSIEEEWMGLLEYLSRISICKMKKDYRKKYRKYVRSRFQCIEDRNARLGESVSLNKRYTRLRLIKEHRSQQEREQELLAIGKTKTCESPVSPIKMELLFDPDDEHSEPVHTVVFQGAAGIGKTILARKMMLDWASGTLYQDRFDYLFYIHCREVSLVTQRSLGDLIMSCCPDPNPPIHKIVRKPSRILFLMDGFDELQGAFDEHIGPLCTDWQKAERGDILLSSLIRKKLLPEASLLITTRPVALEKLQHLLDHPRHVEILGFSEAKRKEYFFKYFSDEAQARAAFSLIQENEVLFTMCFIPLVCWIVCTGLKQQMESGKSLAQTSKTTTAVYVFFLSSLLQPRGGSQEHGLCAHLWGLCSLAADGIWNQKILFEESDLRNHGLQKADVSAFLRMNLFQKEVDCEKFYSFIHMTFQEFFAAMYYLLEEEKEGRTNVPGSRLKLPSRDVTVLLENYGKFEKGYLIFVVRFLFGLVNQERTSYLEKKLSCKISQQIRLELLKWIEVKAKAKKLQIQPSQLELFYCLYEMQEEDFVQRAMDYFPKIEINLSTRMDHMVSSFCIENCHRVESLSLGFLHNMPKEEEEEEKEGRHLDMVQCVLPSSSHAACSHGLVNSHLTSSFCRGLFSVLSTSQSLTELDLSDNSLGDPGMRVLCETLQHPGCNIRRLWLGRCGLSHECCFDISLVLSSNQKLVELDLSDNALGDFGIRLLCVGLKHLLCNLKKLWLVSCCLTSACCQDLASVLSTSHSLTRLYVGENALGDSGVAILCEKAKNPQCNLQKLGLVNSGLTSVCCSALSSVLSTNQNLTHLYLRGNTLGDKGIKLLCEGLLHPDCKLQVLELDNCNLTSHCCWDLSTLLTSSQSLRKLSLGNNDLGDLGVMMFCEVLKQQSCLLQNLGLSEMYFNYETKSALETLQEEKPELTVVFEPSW
UniProt Q8R4B8: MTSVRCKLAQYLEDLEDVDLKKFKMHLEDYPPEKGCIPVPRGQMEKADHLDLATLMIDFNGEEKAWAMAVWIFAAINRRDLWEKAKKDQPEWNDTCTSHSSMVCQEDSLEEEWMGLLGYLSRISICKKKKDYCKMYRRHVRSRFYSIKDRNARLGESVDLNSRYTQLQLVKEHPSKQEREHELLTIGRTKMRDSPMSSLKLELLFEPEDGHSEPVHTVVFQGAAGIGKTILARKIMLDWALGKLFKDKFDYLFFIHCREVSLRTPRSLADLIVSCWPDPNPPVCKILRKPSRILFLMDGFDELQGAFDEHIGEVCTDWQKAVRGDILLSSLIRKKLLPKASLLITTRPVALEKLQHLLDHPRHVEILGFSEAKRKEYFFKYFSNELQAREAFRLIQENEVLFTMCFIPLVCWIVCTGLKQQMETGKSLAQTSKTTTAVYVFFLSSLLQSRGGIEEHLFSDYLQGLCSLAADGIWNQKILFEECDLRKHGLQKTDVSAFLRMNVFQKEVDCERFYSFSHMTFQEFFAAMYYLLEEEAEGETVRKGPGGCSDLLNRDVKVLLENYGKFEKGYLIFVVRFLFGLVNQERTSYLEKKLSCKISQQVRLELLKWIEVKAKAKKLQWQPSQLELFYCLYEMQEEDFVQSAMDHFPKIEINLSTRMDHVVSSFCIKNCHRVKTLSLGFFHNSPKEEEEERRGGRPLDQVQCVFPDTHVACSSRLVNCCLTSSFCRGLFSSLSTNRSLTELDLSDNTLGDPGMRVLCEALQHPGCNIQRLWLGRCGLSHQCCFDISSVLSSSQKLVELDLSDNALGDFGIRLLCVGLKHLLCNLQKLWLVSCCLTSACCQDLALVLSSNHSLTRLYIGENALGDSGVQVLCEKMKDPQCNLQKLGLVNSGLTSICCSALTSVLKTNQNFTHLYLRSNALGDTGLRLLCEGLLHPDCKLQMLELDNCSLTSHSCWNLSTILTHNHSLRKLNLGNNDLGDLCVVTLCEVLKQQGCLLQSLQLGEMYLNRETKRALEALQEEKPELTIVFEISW

Assay [1] concerns the target MAPL (mitochondrial-anchored protein ligase) with 2xHA/2xSTREP tag (UniProt Q969V5). In words: co-IP; HEK293T transfected with the indicated plasmids, lysed about 24 h later in 20 mM Tris pH 7.5, 150 mM NaCl, 1% Triton X-100, 10% glycerol, 2 mM EDTA; anti-FLAG or anti-HA agarose beads overnight; glycine elution, western blot. (A western blot detects proteins with antibodies after separation by electrophoresis.)

In assay [2] the target is FLAG-tagged human NLRP3 (human) (UniProt Q96P20). The description is as above.
For assay [3], the target named is endogenous NLRP3 of murine BMDMs (mouse (endogenous in immortalised BMDMs)) (UniProt Q8R4B8). Description: proximity ligation; Duolink PLA in fixed immortalised WT murine BMDMs, untreated or primed with LPS (500 ng/ml, 4 h); anti-NLRP3 with anti-MAPL, anti-SUMO-2/3 or anti-ASC; also after non-targeting or Mapl siRNA; Nlrp3-/- BMDMs as control.
Assay [4] shares this target. In words: proximity ligation; Duolink PLA in fixed immortalised WT murine BMDMs treated with LPS (4 h) followed by 10 uM nigericin for 30 min or 5 mM ATP for 20 min; anti-NLRP3 with anti-MAPL, anti-SUMO-2/3 or anti-ASC.
For assay [5] the target is unchanged. Description: condition: only LPS (4 h) followed by 30 min with nigericin; proximity ligation; Duolink PLA in fixed immortalised WT murine BMDMs treated with LPS (4 h) followed by 10 uM nigericin for 30 min or 5 mM ATP for 20 min; anti-NLRP3 with anti-MAPL, anti-SUMO-2/3 or anti-ASC.

No constants are given. Whether binding was seen depends on the method and setting. Binding seen in cells or lysates may run through a third protein. Some results given as binding are weak or reduced against the parent protein; the word gives no strength.

Consider “FLAG-tagged human NLRP3 (from UniProt Q96P20 1-1036)”, for which the binding entry in assay [1] is reported as “binds”.

For the molecule “MAPL (mitochondrial-anchored protein ligase) with 2xHA/2xSTREP tag (from UniProt Q969V5 1-352)”, the binding result in assay [2] is “binds”.

B1: endogenous MAPL of murine BMDMs (protein, UniProt Q8VCM5 1-352)
chain: MESGSRPSLGQVILLGTSSMVTAVLYSIYRQKAQVAQELKGAKKIHLGEDLKGILSEAPGKCVPYAVIEGAVRSVKETLNSQFVENCKGVIQRLSLQEHKMVWNRTTHLWNDYSKIIHQRTNTVPFDLVPHEDGVAVSVRVLKPLDSVDLGLETVYEKFHPSVQSFTDAIGHYISGERPKGIQETEEMLKVGATLTGIGELVLDNNAVRLQPPKQGMQYYLSSQDFDSLLHRQESSVRLWKILVLVFGFATCATLFFILRKQYLHRQERLRQQQLQEEFLEHEAQLLSQASPEDRESLKSACVVCLSNFKSCVFLECGHVCSCRQCYLALPEPKRCPICRREITRVIPLYNS
Consider B1, for which the binding result in assay [3] was “binds”; in assay [4] it was “binds weakly”; in assay [5], “no binding”.
